Assay results published in publication PMC4725867.
No constants are given. Whether binding was seen depends on the method and setting. Binding seen in cells or lysates may run through a third protein. Some binding calls cover weakened binding; strength is not graded here.

By UniProt entry, the sequences of proteins in these tests, tags left out. Where a name states a change or a piece, a line headed by the entry shows the natural chain unless it says otherwise.
UniProt Q05397: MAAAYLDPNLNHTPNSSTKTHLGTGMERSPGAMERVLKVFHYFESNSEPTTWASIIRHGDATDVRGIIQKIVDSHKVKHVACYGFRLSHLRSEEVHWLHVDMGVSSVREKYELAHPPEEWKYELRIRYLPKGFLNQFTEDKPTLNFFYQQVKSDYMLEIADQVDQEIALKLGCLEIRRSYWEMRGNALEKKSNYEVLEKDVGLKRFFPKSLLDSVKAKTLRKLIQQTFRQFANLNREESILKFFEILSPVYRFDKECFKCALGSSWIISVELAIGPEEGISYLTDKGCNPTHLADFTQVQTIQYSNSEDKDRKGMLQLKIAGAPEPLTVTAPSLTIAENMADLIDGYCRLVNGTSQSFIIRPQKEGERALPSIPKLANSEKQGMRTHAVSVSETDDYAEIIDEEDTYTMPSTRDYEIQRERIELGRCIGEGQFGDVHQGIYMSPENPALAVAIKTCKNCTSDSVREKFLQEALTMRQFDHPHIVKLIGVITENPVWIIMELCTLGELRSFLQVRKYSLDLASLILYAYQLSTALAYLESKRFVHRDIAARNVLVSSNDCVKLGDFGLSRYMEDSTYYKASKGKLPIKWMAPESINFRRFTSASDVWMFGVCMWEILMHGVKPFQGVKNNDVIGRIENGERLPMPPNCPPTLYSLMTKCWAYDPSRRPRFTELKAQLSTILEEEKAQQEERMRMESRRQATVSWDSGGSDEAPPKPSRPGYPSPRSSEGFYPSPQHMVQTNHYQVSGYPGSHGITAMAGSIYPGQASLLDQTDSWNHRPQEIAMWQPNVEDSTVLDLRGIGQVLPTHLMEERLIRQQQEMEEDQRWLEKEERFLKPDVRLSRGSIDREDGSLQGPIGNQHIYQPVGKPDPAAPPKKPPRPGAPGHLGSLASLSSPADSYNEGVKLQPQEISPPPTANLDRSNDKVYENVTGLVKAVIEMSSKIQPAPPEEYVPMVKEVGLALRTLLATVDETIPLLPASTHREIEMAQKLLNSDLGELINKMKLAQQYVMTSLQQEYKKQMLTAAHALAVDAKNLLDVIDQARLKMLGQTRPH
UniProt P05556: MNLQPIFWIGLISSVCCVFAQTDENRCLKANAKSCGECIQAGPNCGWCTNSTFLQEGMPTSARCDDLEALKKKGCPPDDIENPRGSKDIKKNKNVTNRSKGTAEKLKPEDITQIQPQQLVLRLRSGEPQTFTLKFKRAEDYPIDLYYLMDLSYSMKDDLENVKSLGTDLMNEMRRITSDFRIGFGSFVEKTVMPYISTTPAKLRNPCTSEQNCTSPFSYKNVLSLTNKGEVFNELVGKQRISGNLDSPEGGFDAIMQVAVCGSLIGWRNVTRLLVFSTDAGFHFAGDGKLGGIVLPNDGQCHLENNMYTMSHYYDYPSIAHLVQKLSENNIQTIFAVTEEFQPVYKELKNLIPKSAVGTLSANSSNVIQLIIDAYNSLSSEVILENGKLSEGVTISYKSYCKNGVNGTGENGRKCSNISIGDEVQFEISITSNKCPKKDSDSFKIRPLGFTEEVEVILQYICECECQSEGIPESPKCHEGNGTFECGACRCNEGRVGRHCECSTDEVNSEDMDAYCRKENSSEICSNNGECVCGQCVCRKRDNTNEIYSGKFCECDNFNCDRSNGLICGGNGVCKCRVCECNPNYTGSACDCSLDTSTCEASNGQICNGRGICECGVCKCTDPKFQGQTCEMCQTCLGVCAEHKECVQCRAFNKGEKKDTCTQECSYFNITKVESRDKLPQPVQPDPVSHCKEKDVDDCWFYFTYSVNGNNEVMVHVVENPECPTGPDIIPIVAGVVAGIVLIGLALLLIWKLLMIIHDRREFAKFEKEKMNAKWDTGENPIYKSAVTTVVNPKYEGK

Experiments:
[1] = molecular target: Focal Adhesion Kinase (human (endogenous in normal human lung fibroblasts)) (UniProt Q05397); assay: co-IP; lysates of serum-starved human lung fibroblasts on fibronectin without PDGF-BB (vehicle); sepharose-coupled anti-FAK antibody, overnight at 4 degree; blot with anti-β1
[2] = molecular target: Focal Adhesion Kinase (human (endogenous in normal human lung fibroblasts)) (UniProt Q05397); assay: as above; remark: listed apart in the source
[3] = molecular target: Focal Adhesion Kinase (human (endogenous in normal human lung fibroblasts)) (UniProt Q05397); assay: co-IP; lysates of serum-starved human lung fibroblasts on fibronectin treated with PDGF-BB (2 ng/ml, time course up to 20 h; also with FAK inhibitor PF-573228 up to 5 μM, or control IgG); sepharose-coupled anti-FAK antibody, overnight at 4 degree; blot with anti-β1

integrin β1 (from UniProt P05556 21-798) (receptor)
binding [1]: no binding (condition: without PDGF-BB stimulation) | binding [2]: binds weakly | binding [3]: binds
